# Primary screen of a compound library

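Whole-parasite assay of Trypanosoma brucei over 72 hours; the read-out is not stated. Concentration: 30 µM. The record gives no direction; compounds that gave an IC50 in retests scored well above the rest, so higher reads as stronger inhibition. Values scatter widely below zero; nearly all retest evidence comes from the higher of the two concentrations used. Of about 64,000 compounds tested this way, about 940 (1.5%) reached 50% or more in at least one test.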

Results are given as percent effect. The record does not define 0% and 100%; most values in the screen are far below 50% and negative numbers occur (in some assays of this library far below -100). This is an unselected part of the compounds tested.

structure | Percent Effect
CC(CS(C)(=O)=O)N(C(=O)Nc1cc(F)ccc1Cl)C1CC1 (configuration not stated) | -13.8
CS(=O)(=O)N1CCCCCC1C1CCN(c2ncccn2)CC1 (configuration not stated) | -42.82
CC(c1ccccc1F)N(CC(N)=O)C1CC1 (configuration not stated) | -4.252
Cc1ccn(C)c(=O)c1NC(=O)N(C)Cc1cccc(OC(C)C)c1 | -12.29
COCC1COCCC12CCN(C(=O)CCc1ccccc1)CC2 (configuration not stated) | -48.48
FC(F)(F)c1cc(-c2cccs2)nc(N2CCN3CCCC3C2)n1 (configuration not stated) | -9.978
O=C(C(CNCc1cccnc1)c1ccccc1)N1CCOCC1 (configuration not stated) | -26.76
CCc1nc(C2CCCN2C(=O)CCc2c(C)noc2Cl)no1 (configuration not stated) | -5.316
COCCC1(C(=O)O)CCCN(C(=O)c2cc(C)oc2C)C1 (configuration not stated) | -8.404
Cc1ccccc1C(C)NC(=O)c1ccc(=O)n(C)c1 (configuration not stated) | -15.59
CS(=O)(=O)N1CCC(c2cnc(-c3cn[nH]c3)cn2)CC1 | 12.62
N[C@H]1CN(S(=O)(=O)N2CCCC2)C[C@@H]1c1ccccc1 | 20.25
Cc1ncsc1CNC(=O)CCN1CCN(c2ccccn2)CC1 | -9.326
Cc1ccc2ncn(CC(O)CN3CCC(C)CC3)c(=O)c2c1 (configuration not stated) | -11.47
[H][C@@]12CCN(S(C)(=O)=O)C[C@@]1([H])O[C@H](c1ccnc(C)n1)C2 | 53.53
O=C(CCC1CCCC1)N1CCC(c2cc3ncccc3c(O)n2)CC1 | -5.921
O=C(O)C(F)(F)F.O=C(O)C(F)(F)F.[H][C@@]12CN(Cc3ccsc3)CCC[C@]1(C(=O)O)CN(c1ccccn1)C2 | -107.5
COc1ncccc1NC(=O)C1CC(=O)N(Cc2ccccn2)C1 (configuration not stated) | 55.04
CN1CCN(CCCNC(=O)CCc2nc3cc(Br)cnc3[nH]2)CC1 | -6.641
CO[C@@H]1CCN(Cc2nccs2)C[C@@H]1Cc1cccc(C)c1.O=C(O)C(F)(F)F | 2.594
O=C(NCc1ccc(OCC2CC2)nc1)C1COc2ccccc2O1 (configuration not stated) | -50.84
CCCn1nc2c(cc1=O)CN(CCN1CCCC1=O)CC2 | -21.67
O=C(O)C(F)(F)F.[H][C@@]12C[C@H](C(=O)Nc3ccccc3)[C@@]([H])(CN(CCC(C)C)C1)O2 | -23.42
Cc1ccc(CN(Cc2nc3c(cnn3C)c(=O)[nH]2)C2CC2)o1 | -17.87
COCC1COCCC12CCN(S(=O)(=O)c1cccnc1)CC2.O=C(O)C(F)(F)F (configuration not stated) | -13.71
CCn1cnnc1CCNS(=O)(=O)N1CCCC1c1ccco1 (configuration not stated) | -5.968
C[C@H](NC(=O)c1cnc(-c2ccccc2)nc1O)C(N)=O | -2.432
COc1ccc(C(CO)NC(=O)Nc2cccc(F)c2)cc1 (configuration not stated) | -45.98
O=C(O)C(F)(F)F.[H][C@]12C[C@H](C(=O)NC)N(C)[C@@]1([H])CN(S(=O)(=O)c1ccccc1)C2 | -14.47
CCc1cc(NCCc2cccnc2)n2nc(C)c(C)c2n1 | 18.31
Cl.O=C(O)CN1CCC(C(F)(F)F)CC1 | -14.22
CCN(CC)S(=O)(=O)CC(=O)N1CCc2ccc(C)cc21 | -0.9054
O=C(O)C(F)(F)F.[H][C@]12CN(Cc3ccc(Cl)cc3)C[C@@]1([H])S(=O)(=O)CC[C@@H]2C(=O)NCC(C)C | 63.22
CCNC(=O)C1(Cc2cc(-c3ccc(C)cc3)no2)CCCN(C)C1 (configuration not stated) | 8.996
CCCc1nc(C)c(CN2CC3(CCOC3)CCC2=O)s1 (configuration not stated) | -10.86
CCOC(=O)C1CCN(Cc2csc(C(C)(C)C)n2)CC1 | 96.9
O=C(O)C(F)(F)F.[H][C@@]12OCCN(S(=O)(=O)C3CC3)[C@@]1([H])CC[C@@H]2Oc1cccnc1 | -13.79
Cc1cc(C)n(CC(=O)N2CCC(NS(=O)(=O)c3ccccc3)CC2)n1 | -20.47
O=C(NCC1CC1)C1=NOC2(CCN(S(=O)(=O)Cc3ccccc3)C2)C1 (configuration not stated) | -19.27
CC(Cc1cn(CCc2n[nH]c(=O)[nH]2)nn1)c1ccccc1 (configuration not stated) | 1.402
CCCN1CCCn2nc(CNC(=O)CN(C)C3CCCC3)cc2C1 | -25.96
Cc1n[nH]cc1CNCC(c1cccc(F)c1)N(C)C (configuration not stated) | -16.79
O=C(c1ccc(-n2cnnc2)cc1)N1CCCC(n2ccnc2)C1 (configuration not stated) | -1.99
COc1ccnc(CN2CCC(O)(c3ccc(C)cn3)CC2)c1OC | -15.79
CCOc1ccccc1-c1noc(CN2CCN(CCOC)CC2)n1 | 10.83
COc1c(CNC2CCN(CC(=O)NC3CC3)CC2)c(C)nn1C | -6.465
Cn1cccc1C1CCCN1Cc1noc(C(C)(C)C)n1 (configuration not stated) | -45.86
Cc1nn(C)c(C)c1CC(=O)N1CCCC(n2ccnc2)C1 (configuration not stated) | -21.22
CCC(C)Oc1cc(C(=O)Nc2nnc(C(C)C)[nH]2)ccn1 (configuration not stated) | -1.795
CCNc1ncc(C(=O)N(C)Cc2nc3ccccc3n2C)cn1 | -37.68
CSc1ccc(NCc2csc(CS(C)(=O)=O)n2)cc1F | -11.8
O=C(O)C(F)(F)F.O=C(c1cocn1)N1CCC2(CC1)CC(Oc1ccccn1)CO2 (configuration not stated) | -26.7
CC(=O)C1(c2ccccc2)CCN(C(=O)c2ccn3nnnc3c2)CC1 | 6.676
Cc1cc(C(F)(F)F)c2c(C3CCCN(C(=O)C4CC4)C3)noc2n1 (configuration not stated) | 14.81

Repeated from the top, 5 entries:

{"structure": "CC(CS(C)(=O)=O)N(C(=O)Nc1cc(F)ccc1Cl)C1CC1", "stereo": "configuration not stated", "Percent Effect": -13.8}
{"structure": "CS(=O)(=O)N1CCCCCC1C1CCN(c2ncccn2)CC1", "stereo": "configuration not stated", "Percent Effect": -42.82}
{"structure": "CC(c1ccccc1F)N(CC(N)=O)C1CC1", "stereo": "configuration not stated", "Percent Effect": -4.252}
{"structure": "Cc1ccn(C)c(=O)c1NC(=O)N(C)Cc1cccc(OC(C)C)c1", "Percent Effect": -12.29}
{"structure": "COCC1COCCC12CCN(C(=O)CCc1ccccc1)CC2", "stereo": "configuration not stated", "Percent Effect": -48.48}

Measurements from “University of Dundee, Small-Polar-MMV Screening Library” (2021), ChEMBL document CHEMBL3988442.